PubChem BioAssay AID1259254 – NCATS | 2017

Aim: 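Gene knock-downs that lead to re-replication, shown by excess G2 DNA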 (primary screen)
Cell system: human HCT116 colorectal cancer cells
Reagents: single siRNA against human genes
Duration: 3 days
Measurement: 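Imaged Hoechst DNA stain sorts each cell into a cycle phase by DNA amount; per plate, G2 fraction set to 0% for non-targeting and 100% for GMNN siRNA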
Scale: G2 robust z-score: higher = more G2 cells, more excess DNA replication
Rule for the call: 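An siRNA counts as active if its G2 robust z-score lies at least 5 MADs above the screen median; here such calls match roughly 38% of GMNN control or more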
This is an unselected part of about 59,000 reagents. About 1,550 of all reagents (2.6%) count as active. 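G2 share is only a proxy for re-replication; each gene was hit by three separate siRNAs, and active genes were retested.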 Further read-outs or replicates are left out here. The record does not give: the amount of reagent.

G2 robust z-score, by target and reagent
MPDU1 (mannose-P-dolichol utilization defect 1): SID160722416 0.926 inactive; SID160722417 1.67 inactive; SID160722418 -0.123 inactive
PPP3CB (protein phosphatase 3 catalytic subunit beta): SID160714834 -0.612 inactive; SID160714835 0.00615 inactive; SID160714836 -0.186 inactive
REEP4 (receptor accessory protein 4): SID160750441 3.06 inactive; SID160750442 -0.368 inactive; SID160750443 1.89 inactive
MYBBP1A (MYB binding protein 1a): SID160728615 1.33 inactive; SID160728616 -0.71 inactive; SID160728617 0.691 inactive
OR8G1 (olfactory receptor family 8 subfamily G member 1): SID160732868 4.35 inactive; SID160737993 0.467 inactive; SID160737995 1.94 inactive
ZNF701 (zinc finger protein 701): SID160744296 -0.715 inactive; SID160744297 0.208 inactive; SID160744298 0.177 inactive
EFEMP1 (EGF-like fibulin extracellular matrix protein 1): SID160764198 0.832 inactive; SID160764209 0.0267 inactive; SID160764220 -1.03 inactive
KRT85 (keratin 85): SID160776460 9.4 active; SID160776461 -1.06 inactive; SID160776462 1.5 inactive
LINC02458 (long independently transcribed non-coding RNA 2458): SID160771470 -0.346 inactive; SID160771472 -0.905 inactive; SID160771473 -0.601 inactive
MAGI1: SID160721759 -1.35 inactive; SID160721760 -0.169 inactive; SID160721761 3.22 inactive
P3H4 (prolyl 3-hydroxylase family member 4 (inactive)): SID160724278 2.98 inactive; SID160724279 6.46 active; SID160728847 0.0312 inactive
DDX50 (DExD-box helicase 50): SID160748471 0.25 inactive; SID160748472 -0.0019 inactive; SID160748473 -1.05 inactive

Quoted from the listing, 12 entries:
G2 robust z-score, by target and reagent
MYBBP1A (MYB binding protein 1a): SID160728616 -0.71 inactive; SID160728617 0.691 inactive
OR8G1 (olfactory receptor family 8 subfamily G member 1): SID160732868 4.35 inactive; SID160737993 0.467 inactive; SID160737995 1.94 inactive
ZNF701 (zinc finger protein 701): SID160744296 -0.715 inactive; SID160744297 0.208 inactive; SID160744298 0.177 inactive
EFEMP1 (EGF-like fibulin extracellular matrix protein 1): SID160764198 0.832 inactive; SID160764209 0.0267 inactive; SID160764220 -1.03 inactive
KRT85 (keratin 85): SID160776460 9.4 active

Additional reagents:
G2 robust z-score, by target and reagent
SULT6B1 (sulfotransferase family 6B member 1): SID160766686 -0.261 inactive; SID160766687 -0.239 inactive; SID160766688 0.289 inactive
SLC30A2: SID160719332 0.545 inactive; SID160719333 3.13 inactive; SID160719334 0.24 inactive
EXOC7 (exocyst complex component 7): SID160735875 -0.86 inactive; SID160735876 0.118 inactive; SID160735877 0.74 inactive
PHF6 (PHD finger protein 6): SID160752087 1.88 inactive; SID160752088 1.77 inactive; SID160752089 -0.88 inactive
ZFP36L2 (ZFP36 like 2 zinc finger CCCH-type): SID160728944 1.03 inactive; SID160728954 0.714 inactive; SID160728965 3.95 inactive
ZNF833P (zinc finger protein 833, pseudogene): SID160767377 2.13 inactive; SID160767378 -0.764 inactive; SID160767379 -1.11 inactive
PTPRO (protein tyrosine phosphatase receptor type O): SID160715424 4.79 inactive; SID160715425 -1.02 inactive; SID160715426 -0.0988 inactive
PRDM12 (PR/SET domain 12): SID160731648 -1.26 inactive; SID160746983 -0.449 inactive; SID160746984 0.0399 inactive
RPS7 (ribosomal protein S7): SID160716163 4.06 inactive; SID160716164 2.04 inactive; SID160716166 1.23 inactive
GFRA4 (GDNF family receptor alpha 4): SID160747443 0.0844 inactive; SID160747444 0.656 inactive; SID160747445 3.03 inactive
PNPP1 (PNP pseudogene 1): SID160734039 -0.724 inactive; SID160770180 -0.354 inactive; SID160770181 -0.527 inactive
